No constants are given. Whether binding was seen depends on the method and setting. In cells and extracts the contact can be indirect. Some binding calls cover weakened binding; strength is not graded here. Values belong to the binder of their own block, whether it stands above or below them.
What was measured:
LynSH2 (mouse) = LynSH2 (mouse) (UniProt P25911); test: pull-down; SH2 domain coupled to CNBr-Sepharose beads added to cleared 1% NP-40 lysates of mouse splenic B cells (stimulated 5 min at 37°C with 100 μM pervanadate, 10 μg/mL anti-IgG H+L or 6.4 μg/mL F(ab’)2 anti-IgG H+L), 2 h at 4°C, washed 3x in lysis buffer, eluted in reducing Laemmli buffer, immunoblot; only the target purified
SHIP1SH2 (mouse) = target: T1, SHIP1SH2 (mouse) (UniProt Q9ES52); test: as above
T1 sequence: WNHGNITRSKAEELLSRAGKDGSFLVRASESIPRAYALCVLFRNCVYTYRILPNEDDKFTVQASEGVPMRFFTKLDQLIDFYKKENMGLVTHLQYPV

Sequences of proteins named here, by UniProt entry; tags and fusion partners are left off. Residues count along the entry.
UniProt P25911, residues 129-226: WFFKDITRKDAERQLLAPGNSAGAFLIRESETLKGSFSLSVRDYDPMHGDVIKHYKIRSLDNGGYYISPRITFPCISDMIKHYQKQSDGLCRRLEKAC

- binding (LynSH2 (mouse)): binds
- binding (SHIP1SH2 (mouse)): binds
B1: phosphorylated CD79a (receptor, UniProt P11911 29-220)
chain: LRVEGGPPSLTVNLGEEARLTCENNGRNPNITWWFSLQSNITWPPVPLGPGQGTTGQLFFPEVNKNHRGLYWCQVIENNILKRSCGTYLRVRNPVPRPFLDMGEGTKNRIITAEGIILLFCAVVPGTLLLFRKRWQNEKFGVDMPDDYEDENLYEGLNLDDCSMYEDISRGLQGTYQDVGNLHIGDAQLEKP
modifications: tyrosine-phosphorylated (blotted with anti-pCD79a Y182)

- binding (SHIP1SH2 (mouse)): binds
B2: CD22 (receptor, UniProt P35329 22-868)
chain: SANDWTVDHPQTLFAWEGACIRIPCKYKTPLPKARLDNILLFQNYEFDKATKKFTGTVLYNATKTEKDPESELYLSKQGRVTFLGNRIDNCTLKIHPIRANDSGNLGLRMTAGTERWMEPIHLNVSEKPFQPYIQMPSEIRESQSVTLTCGLNFSCFGYDILLKWFLEDSEITSITSSVTSITSSVTSSIKNVYTESKLTFQPKWTDHGKSVKCQVQHSSKVLSERTVRLDVKYTPKLEIKVNPTEVEKNNSVTMTCRVNSSNPKLRTVAVSWFKDGRPLEDQELEQEQQMSKLILHSVTKDMRGKYRCQASNDIGPGESEEVELTVHYAPEPSRVHIYPSPAEEGQSVELICESLASPSATNYTWYHNRKPIPGDTQEKLRIPKVSPWHAGNYSCLAENRLGHGKIDQEAKLDVHYAPKAVTTVIQSFTPILEGDSVTLVCRYNSSNPDVTSYRWNPQGSGSVLKPGVLRIQKVTWDSMPVSCAACNHKCSWALPVILNVHYAPRDVKVLKVSPASEIRAGQRVLLQCDFAESNPAEVRFFWKKNGSLVQEGRYLSFGSVSPEDSGNYNCMVNNSIGETLSQAWNLQVLYAPRRLRVSISPGDHVMEGKKATLSCESDANPPISQYTWFDSSGQDLHSSGQKLRLEPLEVQHTGSYRCKGTNGIGTGESPPSTLTVYYSPETIGKRVALGLGFCLTICILAIWGMKIQKKWKQNRSQQGLQENSSGQSFFVRNKKARRTPLSEGPQSQGCYNPAMDDTVSYAILRFPESDTHNTGDAGTPATQAPPPNNSDSVTYSVIQKRPMGDYENVNPSCPEDESIHYSELVQFGAGKRPQAKEDVDYVTLKH
modifications: tyrosine-phosphorylated (pervanadate-stimulated cells; sites not stated)
